Laboratory results reported in publication PMC3795256.
No constants are given. Whether binding was seen depends on the method and setting. Binding seen in cells or lysates may run through a third protein. Some binding calls cover weakened binding; strength is not graded here. For some of these results: Sequences can lack the tags named with a protein.

T1: Ero1α-FLAG (ER oxidoreductin-1 α, wild type) (human) (UniProt Q96HE7)
T1 sequence: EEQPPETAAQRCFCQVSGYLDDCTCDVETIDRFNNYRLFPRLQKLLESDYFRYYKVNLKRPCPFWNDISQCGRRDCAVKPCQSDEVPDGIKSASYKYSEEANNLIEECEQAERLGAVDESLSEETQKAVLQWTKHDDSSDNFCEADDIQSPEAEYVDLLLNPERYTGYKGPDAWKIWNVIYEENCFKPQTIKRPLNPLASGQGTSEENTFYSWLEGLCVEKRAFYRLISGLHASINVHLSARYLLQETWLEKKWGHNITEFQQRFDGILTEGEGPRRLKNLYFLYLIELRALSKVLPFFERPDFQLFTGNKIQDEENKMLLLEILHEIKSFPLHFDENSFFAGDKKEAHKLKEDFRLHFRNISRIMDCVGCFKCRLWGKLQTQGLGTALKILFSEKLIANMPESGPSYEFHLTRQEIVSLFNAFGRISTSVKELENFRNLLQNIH

T2: Prx4-FLAG (peroxiredoxin 4) (human), Q13162
T2 chain: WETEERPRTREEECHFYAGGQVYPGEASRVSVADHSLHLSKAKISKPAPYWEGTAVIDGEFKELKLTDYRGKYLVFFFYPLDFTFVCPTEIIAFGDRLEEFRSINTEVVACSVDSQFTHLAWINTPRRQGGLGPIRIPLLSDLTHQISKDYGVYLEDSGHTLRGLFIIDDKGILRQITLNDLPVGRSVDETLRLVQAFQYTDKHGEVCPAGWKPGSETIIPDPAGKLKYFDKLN

T3: endogenous ERp44 (mouse myeloma cells) (mouse (endogenous in J558L myeloma cells)) (UniProt Q9D1Q6)
T3 sequence: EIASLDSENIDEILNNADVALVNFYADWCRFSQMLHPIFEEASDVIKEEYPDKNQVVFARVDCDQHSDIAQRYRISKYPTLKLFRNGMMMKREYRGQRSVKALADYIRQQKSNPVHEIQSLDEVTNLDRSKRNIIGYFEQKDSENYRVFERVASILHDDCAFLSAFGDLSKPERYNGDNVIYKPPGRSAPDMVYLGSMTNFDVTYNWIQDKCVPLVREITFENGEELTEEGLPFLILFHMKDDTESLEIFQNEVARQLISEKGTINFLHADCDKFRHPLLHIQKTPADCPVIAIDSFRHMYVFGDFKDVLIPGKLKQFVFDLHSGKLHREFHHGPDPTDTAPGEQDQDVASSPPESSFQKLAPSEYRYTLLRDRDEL


How the values were obtained:
[1] = target: T1, Ero1α-FLAG (ER oxidoreductin-1 α, wild type) (human); test: co-IP; HeLa cells transfected with Prx4-FLAG or Ero1α-FLAG, with or without 0.25 μM dithiobis succinimidyl propionate (DSP) on ice; anti-FLAG immunoprecipitates eluted by FLAG peptides, Western blot
[2] = target: T2, Prx4-FLAG (peroxiredoxin 4) (human), …; test: as above; details: remark: other sources report otherwise
[3] = target: T3, endogenous ERp44 (mouse myeloma cells) (mouse (endogenous in J558L myeloma cells)); test: co-IP; lysates of mouse myeloma J558L cells or J[μs] transfectants immunoprecipitated with anti-ERp44, Western blot; endogenous proteins
[4] = target: Prx4-FLAG (peroxiredoxin 4) (human) (UniProt Q13162); test: co-IP; HeLa cells transfected with Prx4-FLAG or Ero1α-FLAG, with or without 0.25 μM dithiobis succinimidyl propionate (DSP) on ice; anti-FLAG immunoprecipitates eluted by FLAG peptides, Western blot

Row | Binder | binding [1] | binding [2] | binding [3] | binding [4]
1 | ERp72 (protein, UniProt P13667 21-645) VAGAEGPDEDSSNRENAIEDEEEEEEEDDDEEEDDLEVKEENGVLVLNDANFDNFVADKDTVLLEFYAPWCGHCKQFAPEYEKIANILKDKDPPIPVAKIDATSASVLASRFDVSGYPTIKILKKGQAVDYEGSRTQEEIVAKVREVSQPDWTPPPEVTLVLTKENFDEVVNDADIILVEFYAPWCGHCKKLAPEYEKAAKELSKRSPPIPLAKVDATAETDLAKRFDVSGYPTLKIFRKGRPYDYNGPREKYGIVDYMIEQSGPPSKEILTLKQVQEFLKDGDDVIIIGVFKGESDPAYQQYQDAANNLREDYKFHHTFSTEIAKFLKVSQGQLVVMQPEKFQSKYEPRSHMMDVQGSTQDSAIKDFVLKYALPLVGHRKVSNDAKRYTRRPLVVVYYSVDFSFDYRAATQFWRSKVLEVAKDFPEYTFAIADEEDYAGEVKDLGLSESGEDVNAAILDESGKKFAMEPEEFDSDTLREFVTAFKKGKLKPVIKSQPVPKNNKGPVKVVVGKTFDSIVMDPKKDVLIEFYAPWCGHCKQLEPVYNSLAKKYKGQKGLVIAKMDATANDVPSDRYKVEGFPTIYFAPSGDKKNPVKFEGGDRDLEHLSKFIEEHATKLSRTKEEL | binds |  |  | 
2 | ERp44 (protein, UniProt Q9BS26 30-406) EITSLDTENIDEILNNADVALVNFYADWCRFSQMLHPIFEEASDVIKEEFPNENQVVFARVDCDQHSDIAQRYRISKYPTLKLFRNGMMMKREYRGQRSVKALADYIRQQKSDPIQEIRDLAEITTLDRSKRNIIGYFEQKDSDNYRVFERVANILHDDCAFLSAFGDVSKPERYSGDNIIYKPPGHSAPDMVYLGAMTNFDVTYNWIQDKCVPLVREITFENGEELTEEGLPFLILFHMKEDTESLEIFQNEVARQLISEKGTINFLHADCDKFRHPLLHIQKTPADCPVIAIDSFRHMYVFGDFKDVLIPGKLKQFVFDLHSGKLHREFHHGPDPTDTAPGEQAQDVASSPPESSFQKLAPSEYRYTLLRDRDEL | binds |  |  | binds
3 | P5 (protein, UniProt Q15084 20-440) LYSSSDDVIELTPSNFNREVIQSDSLWLVEFYAPWCGHCQRLTPEWKKAATALKDVVKVGAVDADKHHSLGGQYGVQGFPTIKIFGSNKNRPEDYQGGRTGEAIVDAALSALRQLVKDRLGGRSGGYSSGKQGRSDSSSKKDVIELTDDSFDKNVLDSEDVWMVEFYAPWCGHCKNLEPEWAAAASEVKEQTKGKVKLAAVDATVNQVLASRYGIRGFPTIKIFQKGESPVDYDGGRTRSDIVSRALDLFSDNAPPPELLEIINEDIAKRTCEEHQLCVVAVLPHILDTGAAGRNSYLEVLLKLADKYKKKMWGWLWTEAGAQSELETALGIGGFGYPAMAAINARKMKFALLKGSFSEQGINEFLRELSFGRGSTAPVGGGAFPTIVEREPWDGRDGELPVEDDIDLSDVELDDLGKDEL | binds |  |  | binds

More lines, now with the values ahead:

Row | binding [1] | binding [2] | binding [3] | binding [4] | Binder
4 |  | binds |  |  | ERp72, P13667 21-645 (protein) VAGAEGPDEDSSNRENAIEDEEEEEEEDDDEEEDDLEVKEENGVLVLNDANFDNFVADKDTVLLEFYAPWCGHCKQFAPEYEKIANILKDKDPPIPVAKIDATSASVLASRFDVSGYPTIKILKKGQAVDYEGSRTQEEIVAKVREVSQPDWTPPPEVTLVLTKENFDEVVNDADIILVEFYAPWCGHCKKLAPEYEKAAKELSKRSPPIPLAKVDATAETDLAKRFDVSGYPTLKIFRKGRPYDYNGPREKYGIVDYMIEQSGPPSKEILTLKQVQEFLKDGDDVIIIGVFKGESDPAYQQYQDAANNLREDYKFHHTFSTEIAKFLKVSQGQLVVMQPEKFQSKYEPRSHMMDVQGSTQDSAIKDFVLKYALPLVGHRKVSNDAKRYTRRPLVVVYYSVDFSFDYRAATQFWRSKVLEVAKDFPEYTFAIADEEDYAGEVKDLGLSESGEDVNAAILDESGKKFAMEPEEFDSDTLREFVTAFKKGKLKPVIKSQPVPKNNKGPVKVVVGKTFDSIVMDPKKDVLIEFYAPWCGHCKQLEPVYNSLAKKYKGQKGLVIAKMDATANDVPSDRYKVEGFPTIYFAPSGDKKNPVKFEGGDRDLEHLSKFIEEHATKLSRTKEEL
5 |  |  | binds |  | endogenous Prx4 (mouse myeloma cells) (protein, UniProt O08807 41-274) LESDERFRTRENECHFYAGGQVYPGEASRVSVADHSLHLSKAKISKPAPYWEGTAVINGEFKELKLTDYRGKYLVFFFYPLDFTFVCPTEIIAFGDRIEEFKSINTEVVACSVDSQFTHLAWINTPRRQGGLGPIRIPLLSDLNHQISKDYGVYLEDSGHTLRGLFIIDDKGVLRQITLNDLPVGRSVDETLRLVQAFQYTDKHGEVCPAGWKPGSETIIPDPAGKLKYFDKLN
